From patent publication US20060014717A1, “Therapeutic compositions for use in prophylaxis or treatment of diarrheas” (priority 2002, published 2006)
At least one compound was matched to its structure with a doubt left.

Tests used:
[1] = system: diarrheagenic Escherichia coli CCUG 38068 (EPEC); experiment: Chromatogram binding assay of 35S-labeled bacteria to glycosphingolipids on thin-layer plates
Protocol: (§1) Culture Conditions and Labeling—The E. coli strains were cultured on Luria-agar with the addition of 10 μl ^35S-methionine (400 tici; Amersham Pharmacia Biotech, U.K.) at 37° C. for 12 h. The bacteria were harvested by scraping, washed three times with phosphate-buffered saline (PBS), pH 7.3, and thereafter resuspended in PBS (with or without 1% mannose (w/v)) to 1×10^8 CFU/ml. The specific activities of the suspensions were approximately 1 cpm per 100 bacteria.
(§2) Thin-Layer Chromatography—Thin-layer chromatography of glycosphingolipids was performed on glass- or aluminum-backed silica gel 60 HPTLC plates (Merck, Darmstadt, Germany), using chloroform/methanol/water 60:35:8 (by volume) as solvent system. Chemical detection was done with anisaldehyde (6).
(§3) Glycosphingolipid Binding Assays—Binding of ^35S-labeled bacteria to glycosphingolipids on thin-layer chromatograms was done as reported (7). Dried chromatograms were dipped for 1 min in diethylether/n-hexane (1:5, by volume) containing 0.5% (w/v) polyisobutylmethacrylate (Aldrich Chem. Comp. Inc., Milwaukee, Wis.). After drying, the chromatograms were soaked in PBS containing 2% bovine serum albumin (w/v), 0.1% NaN3 (w/v) and 0.1% Tween 20 (by volume) for 2 h at room temperature. The chromatograms were subsequentely covered with radiolabeled bacteria diluted in PBS (2-5×10^6 cpm/ml). […]

[2] = system: diarrheagenic Escherichia coli CCUG 38077 (EAEC); experiment: as above
Protocol: as §1, §2, §3

E. coli ETEC CCUG 17649 = experiment: Chromatogram binding assay, binding specificities of type strains; parameters: species or system Escherichia coli
E. coli ETEC CCUG 17650 = experiment: as above; parameters: species or system Escherichia coli
E. coli EIEC CCUG 38092 = experiment: as above; parameters: species or system Escherichia coli
Protocol: as §1, §2, §3

E. coli EIEC CCUG 38094 = experiment: as above; parameters: species or system Escherichia coli
[3] = system: E. coli EHEC wt (wild type enterohemorrhagic E. coli); experiment: as above; parameters: species or system Escherichia coli

CC(=O)N[C@H]1[C@H]([C@H](O)[C@H](O)CO)OC(O)(C(=O)O)C[C@@H]1O (stereo partly shown) [Sialic acid]
−: Binding specificities detected in E. coli type strain EPEC CCUG 38068 [1] | Binding specificities detected in E. coli type strain ETEC CCUG 17649 (E. coli ETEC CCUG 17649) | Binding specificities detected in E. coli type strain ETEC CCUG 17650 (E. coli ETEC CCUG 17650) | Binding specificities detected in E. coli type strain EIEC CCUG 38092 (E. coli EIEC CCUG 38092) | Binding specificities detected in E. coli type strain EIEC CCUG 38094 (E. coli EIEC CCUG 38094) | Binding specificities detected in E. coli EHEC wt [3]
+: Binding specificities detected in E. coli type strain EAGG CCUG 38077 [2]
